# In US20250042942A1, “PEPTIDE HAVING PHYSIOLOGICAL ACTIVITIES AND USE THEREOF” (CAREGEN CO., LTD., priority 2021, published 2025):
# Part of at least one peptide drawing is inferred or uncertain, most often the ends. Peptide text beside a SMILES is read from it.
# How the values were obtained:
# Format in all cases: cell-based
# [1] = test system: human C28/12 chondrocyte cell line; assay: Expression of ECM regulators SOX5, SOX6, SOX9 in chondrocytes, Western blot; details: peptide 30, 50, 100, and 150 μg/ml, days 3, 7, and 9, FIGS. 3A to 3C
# [2] = test system: mouse RAW264.7 macrophage cell line; assay: Actin ring formation in osteoclasts induced by RANKL, immunofluorescence; details: peptide 50 and 100 μg/ml together with RANKL, 4 days, FIG. 11
# [3] = test system: human AD-MSC cells; assay: SOX9 protein in mesenchymal stem cells, Western blot; details: peptide 50 and 100 μg/ml, days 3, 7, and 14, FIGS. 7A to 7C
# [4] = test system: mouse RAW264.7 cell line; assay: Cytotoxicity, CCK-8 assay; details: peptide 10, 30, 30, 100, and 150 μg/ml, 3 days, CCK-8, FIG. 10B
# Experimental: The effect of the peptide of the present invention on cell proliferation was confirmed using CCK-8 assay. CCK-8 reagent is reduced by cellular dehydrogenase to produce a colored product, and the proliferation of cells may be confirmed through a difference in absorbance using this.
# After removing the medium, CCK-8 solution (Dojindo, CCK-8 kit) was diluted 10 times in the culture medium and treated at 100 μl each. During incubation at 37° C., absorbance at a wavelength of 450 nm was measured using a microplate reader at 30-minute intervals.
# [5] = test system: human adipose-derived mesenchymal stem cells (AD-MSCs); assay: Differentiation of mesenchymal stem cells into chondrocytes and ECM production, alcian blue staining; details: peptide 30, 50, 100, and 150 μg/ml, day 21, FIG. 5
# [6] = test system: human C28/12 chondrocyte cell line; assay: ECM gene expression in chondrocytes, PCR; details: peptide 50 and 100 μg/ml, day 9, mRNA, FIG. 2
# [7] = test system: mouse RAW264.7 cell line; assay: Osteoclast differentiation induced by RANKL, TRAP staining; details: peptide 10, 30, 30, 100, and 150 μg/ml together with RANKL, 4 days, FIG. 10A
# [8] = test system: mouse RAW264.7 macrophage cell line; assay: COX2 protein in macrophages induced by TNFα, Western blot; details: peptide 100 and 150 μg/ml for 1 hour, then 20 nM TNF-α for 24 hours, FIG. 9
# [9] = test system: mouse RAW264.7 macrophage cell line; assay: Inflammatory cytokine mRNA in macrophages induced by TNFα, PCR; details: peptide 100 and 150 µg/ml for 1 hour, then 20 nM TNF-α for 24 hours, FIG. 8
# [10] = test system: human C28/12 chondrocyte cell line; assay: ECM production in three-dimensional culture of chondrocytes, alcian blue or toluidine blue staining; details: alginate beads, peptide 30, 50, and 100 μg/ml, day 14, FIGS. 4A and 4B
# [11] = test system: human AD-MSC cells; assay: Expression of ECM regulator and ECM genes in mesenchymal stem cells, PCR; details: peptide 50 and 100 μg/ml, days 3, 7, and 11, FIGS. 6A to 6C
# [12] = test system: human C28/12 chondrocyte cell line; assay: ECM production in chondrocytes, alcian blue staining; details: peptide 30, 50, 100, and 150 μg/ml, day 7, alcian blue, FIG. 1
compound,measurement,setting,value
"CC[C@H](C)[C@H](NC(=O)[C@H](C)NC(=O)[C@@H](N)CC(N)=O)C(=O)N[C@@H](CO)C(=O)N[C@H](C(=O)N[C@@H](CC(C)C)C(=O)N[C@@H](Cc1ccc(O)cc1)C(=O)N[C@@H](Cc1ccccc1)C(=O)N[C@@H](CC(=O)O)C(=O)N[C@@H](CC(=O)O)C(=O)N[C@@H](CO)C(=O)O)C(C)C [SEQ ID NO: 1, NAISVLYFDDS] (H-NAISVLYFDDS-OH)",expression of SOX5 protein,[1],increased the expression
same,expression of SOX6 protein,[1],increased the expression
same,expression of SOX9 protein,[1],increased the expression
same,formation of actin rings,[2],inhibited the formation of actin rings
same,production of SOX9 protein,[3],increased production of SOX9 protein
same,absorbance at 450 nm (cell proliferation),[4],the absorbance was higher
same,chondrogenic differentiation of adipose-derived mesenchymal stem cells,[5],promoted the chondrogenic differentiation
same,production of glycosaminoglycan in adipose-derived mesenchymal stem cells,[5],promoted
same,expression of COMP gene,[6],promoted the expression
same,expression of PCP gene,[6],promoted the expression
same,expression of collagen type II (COL2A1) gene,[6],promoted the expression
same,differentiation into osteoclasts induced by RANKL,[7],inhibited the differentiation into osteoclasts
same,increase in inflammatory proteins (COX2 protein),[8],inhibited the increase in inflammatory proteins
same,"expression of inflammatory cytokine genes (TNFα, IL-1β, Cox2)",[9],inhibited the expression of inflammatory cytokine genes
same,formation of glycosaminoglycan in three-dimensional culture of chondrocytes,[10],promoted the formation of glycosaminoglycan
same,expression of ACAN gene,[11],promoted the expression
same,expression of ACP gene,[11],promoted the expression
same,expression of COL2A1 gene,[11],promoted the expression
same,expression of COL 11A gene,[11],promoted the expression
same,expression of COMP gene,[11],promoted the expression
same,expression of PCP gene,[11],promoted the expression
same,expression of Sox9 gene,[11],promoted the expression
same,ECM production (glycosaminoglycan formation) in chondrocytes,[12],promoted ECM production
